# Assay results

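Genome-wide siRNA knockdown in TC32 Ewing sarcoma cells, comparing luciferase light from an NR0B1-promoter reporter with a CMV-promoter reporter 48 hours after transfection.
Each siRNA was applied at 20 nM.
A z-score of the log NR0B1-over-CMV signal, less the median of siRNAs with the same seed; more negative means a stronger specific loss of the NR0B1 reporter.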

This is part of the screen; most of the strongest results are not listed here.
Sequences are the guide (antisense) strand, without overhang.

| # | Sequence | gene | seed-corrected z-score |
|---|---|---|---|
| 1 | `AAAGAGACUAGAUCACUGC` | GLRX | 0.05408 |
| 2 | `UCUAUAAGCACAGAAAGGC` | ZNF426 | 0.04656 |
| 3 | `UCAAAGACAGGGUAAGCUU` | BCL7C | -0.07667 |
| 4 | `UGACAUCUCCGCUUCAUCC` | PALM3 | 1.143 |
| 5 | `UAUAGAGGAAGUGACGCAG` | MON1A | 1.873 |
| 6 | `AAUGUAAGUGCUGACUUCC` | EEF1A1 | -1.481 |
| 7 | `UGCACGAGGAUGUACAUCU` | ELFN2 | -0.02548 |
| 8 | `AUUUUCACCACUAGGUUUG` | LPIN3 | -0.7793 |
| 9 | `UCAUAGAUUGUCGUCUUCC` | PYHIN1 | -0.1182 |
| 10 | `UUUAGCAUAGCCUCUGUGG` | ACE | -0.3313 |
| 11 | `UGCUUUAGGACGAAGCUCU` | LOC128192 | 0.9211 |
| 12 | `UUGGUUCACUCUCAUUUUC` | WBP5 | -0.8114 |
| 13 | `UUGUUUGGAAGGAAUAAUG` | SGK3 | 0.1627 |
| 14 | `UAAAACUUCGCUCUAAUCC` | MRPS23 | -0.6607 |
| 15 | `UAAUUUCCCACUUAGACAU` | DEFB128 | 1.41 |
| 16 | `AGAGCAAUAGGGUCACUGC` | UBL7 | -1.014 |
| 17 | `AUUGCUGUUUGUAUUCUUC` | CRCP | 0.07178 |
| 18 | `AUCUUUUCCGAGGAGGUCG` | LOC389033 | -0.6822 |
| 19 | `UCUGGUGCGAGUAGUGUUU` | HES3 | 1.706 |
| 20 | `AAACUCUUCGUAGUCAGCG` | ANKRD33B | -0.3192 |
| 21 | `UGUGCGAUUUUGUUGUUGC` | VN1R4 | 0.1912 |
| 22 | `UUUUCGAAACAUAACCAGG` | INTS3 | -0.04642 |
| 23 | `AACCAUUUCACCACGAUCU` | COQ4 | -1.412 |
| 24 | `AACGUGCUCAUUGUACCAC` | LOC645529 | -1.301 |
| 25 | `UUCUGACUGAUCAAUGGUG` | TOX4 | -0.8274 |
| 26 | `AAACUGGUAAGUCGUCUCC` | C17orf80 | 0.3356 |
| 27 | `AACUGCACAAAGUAGCUGC` | CCBL1 | -0.5325 |
| 28 | `UAUCUCAAAAGAAGACUGU` | YAP1 | 0.6619 |
| 29 | `CCAGUAAAGAGCUCGAUCC` | TVP23C | 0.4745 |
| 30 | `UUCCUUAUUCCUAACACGC` | TULP1 | -0.681 |
| 31 | `UCAGCUGUCCGCACCCUUU` | LINC01346 | 0.4263 |
| 32 | `UUAGUGCUGGGAUUGAUAG` | CDKL3 | -0.2381 |
| 33 | `UCAGUUUCCCUAAUCCCUG` | COLEC10 | -0.4358 |
| 34 | `UUCUAAUAACCCGACAUGC` | PCCA | -0.7624 |
| 35 | `AUUCUGGAAGGCUCCAUCC` | TCN2 | 0.4018 |
| 36 | `AUAGGAAUGUUUCACAGCC` | KRT26 | 0.1904 |
| 37 | `AAUGAUAUGUGCACCCUGC` | VNN3 | 0.08724 |
| 38 | `UCCUUUGAAACAGAACGGC` | ACTR10 | 0.8104 |
| 39 | `UCUUUAAGAGGUGUAAUAG` | GORASP2 | 0.9218 |
| 40 | `UUCCGGAGCAGACAAGACG` | IGSF9 | -0.4921 |
| 41 | `UCUUUCACAACACUCAGGC` | THUMPD1 | -0.4876 |
| 42 | `UGAAGGAAAGCGGUUUCUC` | APOBEC3H | 0.0219 |
| 43 | `UGGGAACCAGGGACUGUUC` | ECSIT | 0.175 |
| 44 | `UCAUGGUCCGGUCAAUCCG` | CDC42SE1 | 0.006939 |
| 45 | `UCAGGGAAUUUGAGUUUGC` | C11orf31 | 0.6652 |
| 46 | `UAUCUUGUCACGGCCGGAG` | TBL3 | 1.732 |
| 47 | `UCACUUUGAGUCUCCGUGC` | ARHGEF5 | -0.03438 |
| 48 | `UGUUCGUAACGGCUCUUUG` | SRRM3 | 0.01279 |
| 49 | `AGAUGAAUCGCUUCAGGCC` | C11orf71 | -0.09405 |
| 50 | `UAACAAAAGUCAGGUGAGC` | C1orf64 | 0.02006 |
| 51 | `UCCGGUGCAAUUCGUAAGC` | RC3H1 | 0.6085 |
| 52 | `UUACAGCUCAGGUAAAUCA` | GSTT2 | 0.9582 |
| 53 | `UCCUGAACGAGUCUCAUGC` | FAM60A | -0.3308 |
| 54 | `UCCCUUUCUCGUCUCCUGC` | AMD1P3 | 0.6383 |
| 55 | `UUCGUUUACAUGUUGGGAC` | MYO1B | -0.2846 |
| 56 | `UGACGUACAUCCUUAUUGC` | SPG20 | 0.4173 |
| 57 | `UCUGGAAAGGCGAAGAGCG` | ZBTB9 | 0.3658 |
| 58 | `UAAUUGUUCCGGAAAUAGG` | FRZB | 0.005781 |
| 59 | `UAUGAUAAUACUAACUGGG` | HS3ST3A1 | 0.06389 |
| 60 | `UUCCAUAUCUCUUAGAUAC` | ORC5 | 0.4148 |
| 61 | `UUUGAAUCCACUAGCAAAG` | CDS1 | 1.473 |
| 62 | `UUUAACACCGUCUUCUUUC` | ZC3H18 | -0.602 |
| 63 | `AUUGAUGUGAUGGACCACG` | SEPN1 | -0.5076 |
| 64 | `UAAAUUCGCUCAUCUAGGC` | LSM3 | 0.009151 |
| 65 | `UCCGCUAUUAACAAGUUCC` | UFL1 | 1.414 |
| 66 | `UUUGUUAGAAUUUCAAACC` | NME9 | 0.6169 |
| 67 | `UCACUGGCCACUUCCAAGC` | IRGC | -0.1372 |
| 68 | `UUCAUGUGAAUUGAUAGUC` | OMG | 0.06357 |
| 69 | `UGAGCAGGCACUUAAUGCC` | C11orf68 | -1.079 |
| 70 | `UAAGUUGCAUAUGUCCUGC` | LOC729275 | -1.535 |
| 71 | `UAAGCACAGAGUCCUUUGG` | LOC646388 | 0.7564 |

Data taken from PubChem BioAssay AID1159506, deposited by NCATS (2015).